Reference: article PMC10511561
No constants are given. Whether binding was seen depends on the method and setting. In cells and extracts the contact can be indirect. Some binding calls cover weakened binding; strength is not graded here. Sequences can lack the tags named with a protein.

By UniProt entry, the sequences of proteins in these tests, tags left out.
UniProt Q08032: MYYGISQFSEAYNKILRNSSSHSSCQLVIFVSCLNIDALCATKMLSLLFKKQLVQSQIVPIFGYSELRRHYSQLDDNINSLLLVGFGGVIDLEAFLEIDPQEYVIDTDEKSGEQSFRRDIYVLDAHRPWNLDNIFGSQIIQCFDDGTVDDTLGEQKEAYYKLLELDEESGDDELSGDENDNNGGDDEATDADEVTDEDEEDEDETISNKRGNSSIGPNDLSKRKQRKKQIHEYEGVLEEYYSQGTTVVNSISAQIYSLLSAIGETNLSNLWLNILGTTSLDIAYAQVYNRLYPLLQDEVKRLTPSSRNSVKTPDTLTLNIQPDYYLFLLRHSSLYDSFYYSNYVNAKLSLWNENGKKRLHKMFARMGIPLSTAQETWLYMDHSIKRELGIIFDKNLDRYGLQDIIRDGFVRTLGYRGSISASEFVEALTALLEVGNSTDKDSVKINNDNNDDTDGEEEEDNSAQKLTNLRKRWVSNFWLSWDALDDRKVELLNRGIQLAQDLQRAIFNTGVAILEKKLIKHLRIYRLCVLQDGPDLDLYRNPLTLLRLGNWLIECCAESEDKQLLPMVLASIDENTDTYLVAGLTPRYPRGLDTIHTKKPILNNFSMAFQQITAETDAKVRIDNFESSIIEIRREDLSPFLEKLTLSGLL

Legend:
Psf2-Flag (yeast) [1] = biological target: T1, Psf2-Flag (yeast) (UniProt P40359); experiment: co-IP; Flag IP (anti-FLAG M2 gel) of Psf2-Flag from Benzonase-treated lysates of pol2-iAID cells with POL2-WT or pol2ΔDS2 after depletion of Pol2-AID; early S phase cells, 30 min after release from G1 arrest; blots for Flag, Cdc45, Mcm2
T1 sequence: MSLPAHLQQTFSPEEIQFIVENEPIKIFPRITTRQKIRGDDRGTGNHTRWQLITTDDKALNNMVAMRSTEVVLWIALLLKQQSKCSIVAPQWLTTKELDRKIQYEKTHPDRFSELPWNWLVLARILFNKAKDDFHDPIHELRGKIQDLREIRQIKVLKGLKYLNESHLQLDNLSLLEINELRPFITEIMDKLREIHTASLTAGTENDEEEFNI

Psf2-Flag (yeast) [2] = biological target: T1, Psf2-Flag (yeast); experiment: condition: only G1-arrested cells (before release into S phase); co-IP; Flag IP (anti-FLAG M2 gel) of Psf2-Flag from Benzonase-treated lysates of POL2-WT pol2-iAID cells after depletion of Pol2-AID; G1-arrested cells (before release); blots for Flag, Cdc45, Mcm2

Q: For “Cdc45 (in yeast lysate) (from UniProt Q08032 1-650)”, which binding (Psf2-Flag (yeast) [1]) is on record?
A: binds

Q: And the binding (Psf2-Flag (yeast) [2])?
A: no binding
